Test results published in article PMC10229581.

Sequences of proteins named here, by UniProt entry; tags and fusion partners are left off. Residues count along the entry.
UniProt Q9Z2G6, residues 22-790: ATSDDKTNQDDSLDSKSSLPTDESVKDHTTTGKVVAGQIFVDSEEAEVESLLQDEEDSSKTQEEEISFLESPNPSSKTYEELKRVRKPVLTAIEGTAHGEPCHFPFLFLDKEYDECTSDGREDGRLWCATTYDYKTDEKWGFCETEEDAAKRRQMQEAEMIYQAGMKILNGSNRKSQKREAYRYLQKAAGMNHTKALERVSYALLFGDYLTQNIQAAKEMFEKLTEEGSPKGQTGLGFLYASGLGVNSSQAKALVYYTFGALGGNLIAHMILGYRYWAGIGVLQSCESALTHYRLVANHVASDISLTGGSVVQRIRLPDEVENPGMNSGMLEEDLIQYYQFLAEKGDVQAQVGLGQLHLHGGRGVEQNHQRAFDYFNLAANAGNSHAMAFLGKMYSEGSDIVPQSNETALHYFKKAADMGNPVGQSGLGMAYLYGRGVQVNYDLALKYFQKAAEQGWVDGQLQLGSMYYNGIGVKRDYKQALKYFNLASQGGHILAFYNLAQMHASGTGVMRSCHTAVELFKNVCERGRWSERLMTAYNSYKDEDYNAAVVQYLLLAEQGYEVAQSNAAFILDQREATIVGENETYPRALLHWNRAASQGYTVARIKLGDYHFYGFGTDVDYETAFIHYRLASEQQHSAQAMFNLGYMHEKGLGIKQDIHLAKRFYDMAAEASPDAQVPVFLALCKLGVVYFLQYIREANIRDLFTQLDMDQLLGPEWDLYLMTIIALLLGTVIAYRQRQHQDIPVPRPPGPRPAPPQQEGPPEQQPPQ
UniProt P49817: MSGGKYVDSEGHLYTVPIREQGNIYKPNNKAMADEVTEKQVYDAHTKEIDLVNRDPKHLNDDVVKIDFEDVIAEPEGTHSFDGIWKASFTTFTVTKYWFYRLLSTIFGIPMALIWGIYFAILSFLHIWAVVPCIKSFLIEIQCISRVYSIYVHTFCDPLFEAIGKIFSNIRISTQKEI
UniProt Q06890, residues 22-448: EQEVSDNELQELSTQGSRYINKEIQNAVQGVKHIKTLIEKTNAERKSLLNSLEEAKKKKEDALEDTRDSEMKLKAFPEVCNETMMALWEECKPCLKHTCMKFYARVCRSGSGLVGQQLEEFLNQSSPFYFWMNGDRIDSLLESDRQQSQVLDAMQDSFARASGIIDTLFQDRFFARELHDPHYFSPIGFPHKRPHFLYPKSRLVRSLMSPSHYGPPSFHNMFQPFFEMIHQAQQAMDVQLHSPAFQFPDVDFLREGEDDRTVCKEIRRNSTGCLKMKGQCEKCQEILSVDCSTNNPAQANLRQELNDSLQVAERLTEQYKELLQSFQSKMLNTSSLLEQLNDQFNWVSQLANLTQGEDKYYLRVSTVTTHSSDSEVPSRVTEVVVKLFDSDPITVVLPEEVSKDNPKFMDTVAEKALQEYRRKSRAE
UniProt P08113, residues 22-802: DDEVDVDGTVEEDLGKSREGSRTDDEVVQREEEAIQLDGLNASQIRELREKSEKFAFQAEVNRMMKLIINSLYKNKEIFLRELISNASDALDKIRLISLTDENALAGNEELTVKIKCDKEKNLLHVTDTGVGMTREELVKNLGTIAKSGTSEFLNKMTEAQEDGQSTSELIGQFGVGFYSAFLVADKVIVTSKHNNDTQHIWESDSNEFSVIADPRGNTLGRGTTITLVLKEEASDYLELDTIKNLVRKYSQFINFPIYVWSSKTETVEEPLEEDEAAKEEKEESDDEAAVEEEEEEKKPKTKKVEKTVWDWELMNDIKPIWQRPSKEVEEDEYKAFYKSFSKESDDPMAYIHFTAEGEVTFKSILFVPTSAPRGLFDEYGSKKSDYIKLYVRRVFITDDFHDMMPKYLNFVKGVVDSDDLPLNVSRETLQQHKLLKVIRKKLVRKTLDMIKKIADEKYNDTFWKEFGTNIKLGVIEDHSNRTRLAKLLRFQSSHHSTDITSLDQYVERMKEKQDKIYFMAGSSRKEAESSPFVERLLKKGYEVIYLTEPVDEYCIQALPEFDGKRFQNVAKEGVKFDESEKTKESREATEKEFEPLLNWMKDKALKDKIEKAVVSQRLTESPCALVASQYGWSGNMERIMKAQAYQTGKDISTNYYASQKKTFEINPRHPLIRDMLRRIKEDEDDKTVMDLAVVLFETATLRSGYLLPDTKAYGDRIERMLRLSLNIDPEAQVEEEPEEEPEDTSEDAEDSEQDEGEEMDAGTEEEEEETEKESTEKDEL
UniProt P20029, residues 20-655: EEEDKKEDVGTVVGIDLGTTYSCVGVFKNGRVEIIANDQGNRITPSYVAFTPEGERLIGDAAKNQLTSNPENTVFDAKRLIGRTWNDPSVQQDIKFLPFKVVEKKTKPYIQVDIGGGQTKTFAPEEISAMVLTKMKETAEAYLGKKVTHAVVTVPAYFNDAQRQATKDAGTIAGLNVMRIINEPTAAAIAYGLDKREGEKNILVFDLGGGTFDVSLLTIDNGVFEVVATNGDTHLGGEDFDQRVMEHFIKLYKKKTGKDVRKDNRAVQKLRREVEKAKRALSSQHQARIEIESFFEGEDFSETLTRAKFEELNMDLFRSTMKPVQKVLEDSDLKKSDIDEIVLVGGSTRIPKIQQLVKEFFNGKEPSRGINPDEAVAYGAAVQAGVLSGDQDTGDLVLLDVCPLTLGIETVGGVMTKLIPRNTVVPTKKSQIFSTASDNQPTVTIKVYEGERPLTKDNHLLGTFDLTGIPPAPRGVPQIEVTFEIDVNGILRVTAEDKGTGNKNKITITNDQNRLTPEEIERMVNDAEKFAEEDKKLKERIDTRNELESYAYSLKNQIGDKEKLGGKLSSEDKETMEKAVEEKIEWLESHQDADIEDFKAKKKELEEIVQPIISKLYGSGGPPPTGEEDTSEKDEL
UniProt O08638: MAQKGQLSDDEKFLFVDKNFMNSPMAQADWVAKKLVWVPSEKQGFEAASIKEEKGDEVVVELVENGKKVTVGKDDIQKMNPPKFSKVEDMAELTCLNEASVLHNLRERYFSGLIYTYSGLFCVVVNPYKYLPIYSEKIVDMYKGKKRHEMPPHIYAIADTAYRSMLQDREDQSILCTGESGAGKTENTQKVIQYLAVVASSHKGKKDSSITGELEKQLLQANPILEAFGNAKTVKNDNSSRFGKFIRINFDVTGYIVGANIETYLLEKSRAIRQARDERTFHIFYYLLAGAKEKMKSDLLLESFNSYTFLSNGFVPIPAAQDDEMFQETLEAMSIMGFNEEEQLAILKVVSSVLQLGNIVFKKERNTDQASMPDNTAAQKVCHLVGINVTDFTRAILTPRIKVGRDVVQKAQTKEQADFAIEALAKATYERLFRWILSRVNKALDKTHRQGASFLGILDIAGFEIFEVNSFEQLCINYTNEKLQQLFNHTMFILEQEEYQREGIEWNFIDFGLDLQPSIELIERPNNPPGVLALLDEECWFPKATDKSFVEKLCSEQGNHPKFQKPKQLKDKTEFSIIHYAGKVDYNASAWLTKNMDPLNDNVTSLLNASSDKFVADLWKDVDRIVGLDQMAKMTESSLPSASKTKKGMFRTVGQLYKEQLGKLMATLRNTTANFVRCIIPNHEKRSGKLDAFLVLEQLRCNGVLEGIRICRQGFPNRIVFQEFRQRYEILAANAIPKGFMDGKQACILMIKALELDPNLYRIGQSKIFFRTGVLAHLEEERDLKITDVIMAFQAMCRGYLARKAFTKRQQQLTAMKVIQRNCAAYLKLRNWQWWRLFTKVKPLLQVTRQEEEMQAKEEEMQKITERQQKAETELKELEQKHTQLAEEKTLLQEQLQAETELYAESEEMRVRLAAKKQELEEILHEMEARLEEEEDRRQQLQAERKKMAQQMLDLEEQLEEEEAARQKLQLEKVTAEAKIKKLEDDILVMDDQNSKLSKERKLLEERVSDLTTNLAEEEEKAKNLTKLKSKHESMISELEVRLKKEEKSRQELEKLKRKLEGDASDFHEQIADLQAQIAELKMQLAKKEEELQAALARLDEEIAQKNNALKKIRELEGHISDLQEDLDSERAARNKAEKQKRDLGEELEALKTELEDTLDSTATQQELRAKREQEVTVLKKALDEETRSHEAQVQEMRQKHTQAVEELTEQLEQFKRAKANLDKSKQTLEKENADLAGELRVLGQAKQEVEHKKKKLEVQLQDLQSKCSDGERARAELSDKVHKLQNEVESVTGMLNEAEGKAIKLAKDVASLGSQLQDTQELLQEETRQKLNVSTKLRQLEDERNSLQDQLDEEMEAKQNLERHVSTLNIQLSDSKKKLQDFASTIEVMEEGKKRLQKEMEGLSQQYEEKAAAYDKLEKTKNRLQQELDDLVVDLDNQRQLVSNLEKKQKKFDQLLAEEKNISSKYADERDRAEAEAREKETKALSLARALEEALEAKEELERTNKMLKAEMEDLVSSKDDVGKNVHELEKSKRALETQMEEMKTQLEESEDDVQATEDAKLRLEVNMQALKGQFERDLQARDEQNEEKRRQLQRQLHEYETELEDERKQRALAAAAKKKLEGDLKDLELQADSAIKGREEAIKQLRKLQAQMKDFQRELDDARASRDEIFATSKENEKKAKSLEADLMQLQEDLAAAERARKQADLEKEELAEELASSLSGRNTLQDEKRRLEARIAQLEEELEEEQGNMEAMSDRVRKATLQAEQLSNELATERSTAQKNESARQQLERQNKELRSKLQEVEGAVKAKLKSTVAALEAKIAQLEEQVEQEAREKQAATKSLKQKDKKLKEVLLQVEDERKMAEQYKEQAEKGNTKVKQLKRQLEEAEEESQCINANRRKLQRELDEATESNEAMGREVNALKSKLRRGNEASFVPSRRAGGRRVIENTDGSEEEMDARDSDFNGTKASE

T1: lipoprotein lipase (mouse (endogenous in WAT, BAT and differentiated adipocytes)) (UniProt P11152)
T1 sequence: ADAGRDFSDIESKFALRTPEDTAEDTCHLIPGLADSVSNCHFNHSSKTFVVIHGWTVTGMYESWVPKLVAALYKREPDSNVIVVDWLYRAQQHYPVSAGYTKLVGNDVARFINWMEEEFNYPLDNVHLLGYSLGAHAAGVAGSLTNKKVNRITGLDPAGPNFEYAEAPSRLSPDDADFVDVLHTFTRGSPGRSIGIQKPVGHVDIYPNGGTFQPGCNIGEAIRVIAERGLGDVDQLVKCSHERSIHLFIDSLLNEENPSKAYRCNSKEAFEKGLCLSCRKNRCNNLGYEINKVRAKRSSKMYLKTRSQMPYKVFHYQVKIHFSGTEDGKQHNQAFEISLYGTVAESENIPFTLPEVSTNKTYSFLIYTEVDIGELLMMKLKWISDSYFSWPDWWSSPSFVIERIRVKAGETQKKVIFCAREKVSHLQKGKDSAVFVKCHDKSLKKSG


Assays:
[1] = molecular target: T1, lipoprotein lipase (mouse (endogenous in WAT, BAT and differentiated adipocytes)); assay: affinity purification with mass spectrometry; IP with LPL antibody from pooled WAT lysates of WT, Sel1L^AdipCre, Atg7^AdipCre and DKO mice (IgG as control); Cluster 1 hits enriched in WT, Cluster 2 hits enriched in DKO; 1% Triton X-100, 150 mM NaCl, 25 mM Tris-HCl pH 7.5, 4 °C; exploratory, without replication
[2] = molecular target: SEL1L (mouse (endogenous in BAT and differentiated adipocytes)) (UniProt Q9Z2G6); assay: affinity purification with mass spectrometry; IP with homemade SEL1L antibody from BAT lysate of Hrd1^Ucp1Cre mice (WT and Sel1L^Ucp1Cre BAT and IgG as controls); 1% Triton X-100, 150 mM NaCl, 25 mM Tris-HCl pH 7.5, 4 °C; exploratory, without replication

| Molecule | binding [1] | binding [2] |
| --- | --- | --- |
| Caveolin 1 (from UniProt P49817 1-178) | binds | – |
| Clusterin (from UniProt Q06890 22-448) | binds | – |
| HSP90B1 (GRP94) (from UniProt P08113 22-802) | binds | binds |
| GPX3 (enzyme, UniProt P46412 25-226) QEKSKTDCHGGMSGTIYEYGALTIDGEEYIPFKQYAGKYILFVNVASYUGLTDQYLELNALQEELGPFGLVILGFPSNQFGKQEPGENSEILPSLKYVRPGGGFVPNFQLFEKGDVNGEKEQKFYTFLKNSCPPTAELLGSPGRLFWEPMKIHDIRWNFEKFLVGPDGIPVMRWYHRTTVSNVKMDILSYMRRQAALSARGK | binds | – |
| CCPG1 (protein, UniProt Q640L3 1-753) MSESSSDSDSSCGWTVINHEGSDIEIVNSATASDNCGLTLECSLVEQEELPVLYVGHGGEESSANNTSSVGETMLSSMRETKSAAEVEEAPSPEDNVYFGTTSDDSDIVTLEPPKLEEMGNQEVTIQEAPSSDDLNMGSSSSSQYAFCQPEPVFSSQPSDEESSSDDTSHEPSPAPRRRRNRKKTVSISESEEPPLAEPEDEPSKEPSKRHFSRGLNKCVILALVIAVSMGFGHFYGTIQIQKQLVRKTHEDELDGVKGYLSQRKQEQESFLDFKSLKENLERCWTVTESEKITFETQKKNLAAENQYLRISLEKEEQALSSLQEELRQLREQIRLLEDKGTSTQLVRENQVLKQYLEVEKQKTDSFLREREMLLEEARMLKRDLEREQLTAMALRAELEQFIPGQAQSRAESPSVQTEEKEVGLLQQRLAELEQKLIFEQQRSDLWERLYVEAKDQHGKQETDGRKRGSRGSHRAKSKSKETFLGTVKETFDAMKNSTKEFVRHHKEKIKQAKEAVKENLKKFSDSVKSTFRHFKDTTKNIFDEKGSKRFRAPKEAATEKTRTAYSYSSYSQQEAPNQNQNCRRPSAQRDGGREKPSHSEEIRKNANSYTYKAKSDCRGTHSTRRVCSGMFECAGQEAISPVNKASPVRMNDFKQLIHWYLLNELETFHHWKELDQFISPFFPNGVFRHDQQLFADFVDDVKGYLKSIKEYRVEDGNLEKLDGCIYRHFGHVFALPFGPRSVYIKPCYYNSF | binds | – |
| Gephyrin (protein, UniProt Q8BUV3 1-769) MATEGMILTNHDHQIRVGVLTVSDSCFRNLAEDRSGINLKDLVQDPSLLGGTISAYKIVPDEIEEIKETLIDWCDEKELNLILTTGGTGFAPRDVTPEATKEVIEREAPGMALAMLMGSLNVTPLGMLSRPVCGIRGKTLIINLPGSKKGSQECFQFILPALPHAIDLLRDAIVKVKEVHDELEDLPSPPPPLSPPPTTSPHKQTEDKGVQCEEEEEEKKDSGVASTEDSSSSHITAAALAAKIPDSIISRGVQVLPRDTASLSTTPSESPRAQATSRLSTASCPTPKQIRRPDESKGVASRVGSLKARLPSCSSTYSVSEVQSRCSSKENILRASHSAVDITKVARRHRMSPFPLTSMDKAFITVLEMTPVLGTEIINYRDGMGRVLAQDVYAKDNLPPFPASVKDGYAVRAADGPGDRFIIGESQAGEQPTQTVMPGQVMRVTTGAPIPCGADAVVQVEDTELIRESDDGTEELEVRILVQARPGQDIRPIGHDIKRGECVLAKGTHMGPSEIGLLATVGVTEVEVNKFPVVAVMSTGNELLNPEDDLLPGKIRDSNRSTLLATIQEHGYPTINLGIVGDNPDDLLNALNEGISRADVIITSGGVSMGEKDYLKQVLDIDLHAQIHFGRVFMKPGLPTTFATLDIDGVRKIIFALPGNPVSAVVTCNLFVVPALRKMQGILDPRPTIIKARLSCDVKLDPRPEYHRCILTWHHQEPLPWAQSTGNQMSSRLMSMRSANGLLMLPPKTEQYVELHKGEVVDVMVIGRL | binds | – |

Results, then the molecule that gave them:

| binding [1] | binding [2] | Molecule |
| --- | --- | --- |
| binds | – | HSPA5/BiP (from UniProt P20029 20-655) |
| binds | – | Myosin-11 (from UniProt O08638 1-1972) |
| binds | – | ribophorin 1 (protein, UniProt Q91YQ5 26-608) SSEAPPLVNEDVKRTVDLSSHLAKVTAEVVLVHPGGGSTSRASSFVLALEPELESRLAHLGVQIKGEDEEDNNLEVRETKIKGKSGRFFTVKLPVALDPGSKISVVVETVYTHVLHPYPTQITQSEKQFVVFEGNHYFYSPYPTKTQTMRVKLASRNVESYTKLGNPSRSEDVLDYGPFKDIPAYSQDTFKVHYENNSPFLTITSMTRVIEVSHWGNIAVEENVDLKHTGAVLKGPFSRYDYQRQPDSGISSIRSFKTILPAAAQDVYYRDEIGNVSTSHLLILDDSVEMEIRPRFPLFGGWKTHYIVGYNLPSYEYLYNLGDQYALKMRFVDHVFDEQVIDSLTVKIILPEGAKNIQVDSPYDISRAPDELHYTYLDTFGRPVIVAYKKNLVEQHIQDIVVHYTFNKVLMLQEPLLVVAAFYILFFTVIIYVRLDFSITKDPAAEARMKVACITEQVLTLVNKRLGLYRHFDETVNRYKQSRDISTLNSGKKSLETEHKAVTSEIAVLQSRLKTEGSDLCDRVSEMQKLDAQVKELVLKSAVEAERLVAGKLKKDTYLENEKLSSGKRQELVTKIDHILDAL |
| binds | – | procollagen-Lysine,2-oxoglutarate 5-dioxygenase 3 (enzyme, UniProt Q9R0E1 28-741) SDRPRGANAVNPDKLLVITVATAETEGYRRFLQSAEFFNYTVRTLGLGQEWRGGDVARTVGGGQKVRWLKKEMEKYADQKDMIIMFVDSYDVILASSPTELLKKFVQSGSHLLFSAESFCWPEWGLAEQYPEVGMGKRFLNSGGFIGFAPTIHQIVRQWNYKDDDDDQLFYTQLYLDPGLREKLKLSLDHKSRIFQNLNGALDEVILKFDQNRVRIRNVAYDTLPVVVHGNGPTKLQLNYLGNYVPNGWTPQGGCGFCNQTLRTLPGGQPPPRVLLAVFVEQPTPFLPRFLQRLLLLDYPPDRISLFLHNSEVYHEPHIADAWPQLQDHFSAVKLVGPEEALSAGEARDMAMDSCRQNPECEFYFSLDADAVLTNPETLRVLIEQNRKVIAPMLSRHGKLWSNFWGALSPNEYYARSEDYVELVQRKRVGVWNVPYISQAYVIRGETLRTELPQKEVFSSSDTDPDMAFCKSVRDKGIFLHLSNQHEFGRLLATSRYDTDHLHPDLWQIFDNPVDWREQYIHENYSRALDGEGLVEQPCPDVYWFPLLTEQMCDELVEEMEHYGQWSGGRHEDSRLAGGYENVPTVDIHMKQVGYEDQWLQLLRTYVGPMTEYLFPGYHTKTRAVMNFVVRYRPDEQPSLRPHHDSSTFTLNVALNHKGVDYEGGGCRFLRYDCRISSPRKGWALLHPGRLTHYHEGLPTTRGTRYIMVSFVDP |
| – | binds | lipoprotein lipase (enzyme, UniProt P11152 28-474) ADAGRDFSDIESKFALRTPEDTAEDTCHLIPGLADSVSNCHFNHSSKTFVVIHGWTVTGMYESWVPKLVAALYKREPDSNVIVVDWLYRAQQHYPVSAGYTKLVGNDVARFINWMEEEFNYPLDNVHLLGYSLGAHAAGVAGSLTNKKVNRITGLDPAGPNFEYAEAPSRLSPDDADFVDVLHTFTRGSPGRSIGIQKPVGHVDIYPNGGTFQPGCNIGEAIRVIAERGLGDVDQLVKCSHERSIHLFIDSLLNEENPSKAYRCNSKEAFEKGLCLSCRKNRCNNLGYEINKVRAKRSSKMYLKTRSQMPYKVFHYQVKIHFSGTEDGKQHNQAFEISLYGTVAESENIPFTLPEVSTNKTYSFLIYTEVDIGELLMMKLKWISDSYFSWPDWWSSPSFVIERIRVKAGETQKKVIFCAREKVSHLQKGKDSAVFVKCHDKSLKKSG |

No constants are given. Whether binding was seen depends on the method and setting. Binding seen in cells or lysates may run through a third protein. Here binding means that the protein was enriched with, or labelled near, the bait; the list need not be complete.
